Laboratory results: PubChem BioAssay AID1224826 (NIAID, 2016)

Screen: 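Genes that change LPS-induced Tnf promoter activity in mouse macrophages when knocked down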 (primary screen)
Cells: RAW264.7 G9 macrophages from mouse bearing reporters for p65 (GFP) and the Tnf promoter (mCherry)
Reagent: siRNA pool against mouse genes, 100 nM
Timing: 16 h of LPS stimulation, after 2 days of siRNA transfection
Challenge: bacterial lipopolysaccharide (Salmonella minnesota R595), 10 ng/ml
Measured: 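Imaged Tnf reporter mCherry in nuclei, minus background, normalised per plate to the median and expressed as robust z-scores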
Reading the numbers: Tnf reporter robust z-score: higher = stronger Tnf promoter reporter signal after LPS; Tnf reporter intensity: higher = stronger Tnf promoter reporter signal
Call rule: 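a well counts as active at a score of -1.3 or below (Tlr4 knock-down control median) or above 3 (raised signal); controls and wells holding fewer than 50 cells are excluded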
Calls: active = Tnf reporter clearly lowered or raised; inactive = no clear change in Tnf reporter
This is an unselected part of about 17,000 reagents. About 1,110 of them (6.6%) were called active. 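Active means lowered or raised reporter signal; replicate intensities are raw and not normalised per plate.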 Not all columns of the deposit are shown. No sequences are given here.

no.	gene knocked down	PubChem SID	Tnf reporter robust z-score	fewer than 50 cells in well	Tnf reporter intensity, replicate 1	outcome
1	Vmn1r81 (vomeronasal 1 receptor 81)	SID315477320	0.34	enough cells in well	132	inactive
2	Rpl10 (ribosomal protein L10)	SID315476954		fewer than 50 cells per well; well left out of calls	65	inactive
3	Vmn1r8 (vomeronasal 1 receptor 8)	SID315477293	3.12	enough cells in well	226	active
4	Or8g54 (olfactory receptor family 8 subfamily G member 54)	SID315480467	-0.26	enough cells in well	129	inactive
5	Got2 (glutamatic-oxaloacetic transaminase 2, mitochondrial)	SID315466973	-0.7	enough cells in well	167	inactive
6	Mrps15 (mitochondrial ribosomal protein S15)	SID315472424	1.43	enough cells in well	326	inactive
7	Abcb7 (ATP-binding cassette, sub-family B member 7)	SID315465232	0.53	enough cells in well	177	inactive
8	Sox3 (SRY (sex determining region Y)-box 3)	SID315469388	-0.14	enough cells in well	238	inactive
9	Or1e1 (olfactory receptor family 1 subfamily E member 1)	SID315480547	-0.03	enough cells in well	205	inactive
10	Zfyve16 (zinc finger, FYVE domain containing 16)	SID315478192	0.65	enough cells in well	152	inactive
11	Ssty2 (spermiogenesis specific transcript on the Y 2)	SID315473956		fewer than 50 cells per well; well left out of calls	53.9	inactive
12	Skp1 (S-phase kinase-associated protein 1)	SID315469606	0.13	enough cells in well	302	inactive
13	Bckdhb (branched chain ketoacid dehydrogenase E1, beta polypeptide)	SID315465607	2.19	enough cells in well	213	inactive
14	Casp8ap2 (caspase 8 associated protein 2)	SID315470457		fewer than 50 cells per well; well left out of calls	88.8	inactive
15	Cd6 (CD6 antigen)	SID315465868	0.55	enough cells in well	290	inactive
16	Fnbp4 (formin binding protein 4)	SID315471307	0.28	enough cells in well	215	inactive
17	Qki (quaking, KH domain containing RNA binding)	SID315468841	-0.07	enough cells in well	107	inactive
18	Slc16a10	SID315474557	-0.52	enough cells in well	81.1	inactive
19	Pear1 (platelet endothelial aggregation receptor 1)	SID315474690	0.15	enough cells in well	182	inactive
20	Rragd (Ras-related GTP binding D)	SID315470946	0.04	enough cells in well	318	inactive
21	Cd69 (CD69 antigen)	SID315465871	-0.64	enough cells in well	186	inactive
22	Tas2r126 (taste receptor, type 2, member 126)	SID315481865	1.6	enough cells in well	363	inactive
23	Gabra3 (gamma-aminobutyric acid type A receptor subunit alpha 3)	SID315466796	-1.03	enough cells in well	188	inactive
24	Ppp4r1 (protein phosphatase 4, regulatory subunit 1)	SID315474019	-0.9	enough cells in well	187	inactive
25	Npb (neuropeptide B)	SID315477568	-0.44	enough cells in well	155	inactive
26	Sprr2b (small proline-rich protein 2B)	SID315469442	-0.35	enough cells in well	119	inactive
27	Isg15 (ISG15 ubiquitin-like modifier)	SID315471083	0.88	enough cells in well	312	inactive
28	Copg1 (coatomer protein complex, subunit gamma 1)	SID315471168	-1.06	enough cells in well	110	inactive
29	Dock3 (dedicator of cyto-kinesis 3)	SID315477559	-0.27	enough cells in well	192	inactive
30	Cox15 (cytochrome c oxidase assembly protein 15)	SID315478472	0	enough cells in well	234	inactive
31	Nmi (N-myc (and STAT) interactor)	SID315472118	-0.3	enough cells in well	185	inactive
32	Mtg2 (mitochondrial ribosome associated GTPase 2)	SID315471023	-1.48	enough cells in well	132	active
33	Aamdc (adipogenesis associated Mth938 domain containing)	SID315472334	1.09	enough cells in well	298	inactive
34	Slc24a4	SID315479397	-0.4	enough cells in well	66.8	inactive
35	Cmss1 (cms small ribosomal subunit 1)	SID315472478	-0.64	enough cells in well	194	inactive
36	Vim (vimentin)	SID315470004	0.85	enough cells in well	296	inactive
37	Cdc42se1 (CDC42 small effector 1)	SID315471845	0.39	enough cells in well	279	inactive

Only “Tnf reporter robust z-score”, for 3 of the entries above:
Cox15 (cytochrome c oxidase assembly protein 15) [SID315478472]	0
Nmi (N-myc (and STAT) interactor) [SID315472118]	-0.3
Mtg2 (mitochondrial ribosome associated GTPase 2) [SID315471023]	-1.48

The listing continues:
no.	gene knocked down	PubChem SID	Tnf reporter robust z-score	fewer than 50 cells in well	Tnf reporter intensity, replicate 1	outcome
38	Defa-rs2 (defensin, alpha, related sequence 2)	SID315466305	0.8	enough cells in well	266	inactive
39	Nectin3 (nectin cell adhesion molecule 3)	SID315471938	1.01	enough cells in well	454	inactive
40	Insr (insulin receptor)	SID315467487	1.08	enough cells in well	255	inactive
41	Tacc1 (transforming, acidic coiled-coil containing protein 1)	SID315481245	-1.49	enough cells in well	65.5	active
42	Stfa2l1 (stefin A2 like 1)	SID315480807	-1.28	enough cells in well	128	inactive
43	Dkk3 (dickkopf WNT signaling pathway inhibitor 3)	SID315470843	-1.46	enough cells in well	99.7	active
44	Hemk1 (HemK methyltransferase family member 1)	SID315473821		fewer than 50 cells per well; well left out of calls	117	inactive
45	Cacng4 (calcium channel, voltage-dependent, gamma subunit 4)	SID315471211	-1.09	enough cells in well	89.7	inactive
46	1810065E05Rik (RIKEN cDNA 1810065E05 gene)	SID315473920		fewer than 50 cells per well; well left out of calls	175	inactive
47	Psen1 (presenilin 1)	SID315468734	0.16	enough cells in well	262	inactive
48	Phc1 (polyhomeotic 1)	SID315466441	-0.09	enough cells in well	242	inactive
49	Shld2 (shieldin complex subunit 2)	SID315475181	-0.52	enough cells in well	125	inactive
50	Hmgxb3 (HMG box domain containing 3)	SID315476570	-0.75	enough cells in well	122	inactive
51	Smtn (smoothelin)	SID315470714	-0.53	enough cells in well	222	inactive
52	Casp8 (caspase 8)	SID315465774	0.66	enough cells in well	153	inactive
53	Fzd10 (frizzled class receptor 10)	SID315476007	0.4	enough cells in well	224	inactive
54	Mapkapk2 (MAP kinase-activated protein kinase 2)	SID315467827	2.37	enough cells in well	339	inactive
55	Dnajc5 (DnaJ heat shock protein family (Hsp40) member C5)	SID315466173	-0.08	enough cells in well	249	inactive
56	Rab3b (RAB3B, member RAS oncogene family)	SID315473932	-0.55	enough cells in well	227	inactive
57	Tmem215 (transmembrane protein 215)	SID315481327	2.31	enough cells in well	298	inactive
58	Mettl25b (methyltransferase like 25B)	SID315478708	-1	enough cells in well	149	inactive
